Values quoted from earlier work as cited in US20150285805A1, “BIOMARKERS OF MULTIPLE MYELOMA DEVELOPMENT AND PROGRESSION” (priority 2012, published 2015).
At least one compound was matched to its structure with a doubt left.

Test system: myeloma
Settings: cited from earlier work

In the case of `CCCCCCCCCCCCCCCCCCOCC(COP(=O)([O-])OCC[N+](C)(C)C)OC` (stereo not shown) [edelfosine], the anti-myeloma activity is listed as “has anti-myeloma activity”.
